Measured values taken from doi:10.1101/2025.02.12.637848.
These are yes or no findings as the source states them, for the method shown. In cells and extracts the contact can be indirect. Some binding calls cover weakened binding; strength is not graded here. Sequences can lack the tags named with a protein.

What was measured:
Test in all cases: co-IP
[1] = biological target: T1, Pex28-13xMyc (Saccharomyces cerevisiae) (UniProt P38848)
T1 sequence: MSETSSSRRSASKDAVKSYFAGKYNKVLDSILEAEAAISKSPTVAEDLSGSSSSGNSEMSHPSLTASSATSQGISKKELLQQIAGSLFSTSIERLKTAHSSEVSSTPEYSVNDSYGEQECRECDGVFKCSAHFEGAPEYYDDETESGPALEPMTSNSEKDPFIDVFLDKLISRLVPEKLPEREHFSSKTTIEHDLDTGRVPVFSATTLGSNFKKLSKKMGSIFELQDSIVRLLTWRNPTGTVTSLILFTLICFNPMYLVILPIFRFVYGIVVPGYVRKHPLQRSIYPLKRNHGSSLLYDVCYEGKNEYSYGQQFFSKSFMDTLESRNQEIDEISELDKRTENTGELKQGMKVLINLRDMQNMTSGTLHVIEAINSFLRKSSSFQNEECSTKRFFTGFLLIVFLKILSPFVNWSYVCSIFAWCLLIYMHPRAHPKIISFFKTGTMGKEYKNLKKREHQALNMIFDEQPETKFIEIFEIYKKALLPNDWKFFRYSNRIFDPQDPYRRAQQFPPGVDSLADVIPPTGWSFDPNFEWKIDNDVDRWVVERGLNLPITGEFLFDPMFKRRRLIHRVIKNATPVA

[2] = biological target: T2, Pex29-V5 (Saccharomyces cerevisiae) (UniProt Q03370)
T2 sequence: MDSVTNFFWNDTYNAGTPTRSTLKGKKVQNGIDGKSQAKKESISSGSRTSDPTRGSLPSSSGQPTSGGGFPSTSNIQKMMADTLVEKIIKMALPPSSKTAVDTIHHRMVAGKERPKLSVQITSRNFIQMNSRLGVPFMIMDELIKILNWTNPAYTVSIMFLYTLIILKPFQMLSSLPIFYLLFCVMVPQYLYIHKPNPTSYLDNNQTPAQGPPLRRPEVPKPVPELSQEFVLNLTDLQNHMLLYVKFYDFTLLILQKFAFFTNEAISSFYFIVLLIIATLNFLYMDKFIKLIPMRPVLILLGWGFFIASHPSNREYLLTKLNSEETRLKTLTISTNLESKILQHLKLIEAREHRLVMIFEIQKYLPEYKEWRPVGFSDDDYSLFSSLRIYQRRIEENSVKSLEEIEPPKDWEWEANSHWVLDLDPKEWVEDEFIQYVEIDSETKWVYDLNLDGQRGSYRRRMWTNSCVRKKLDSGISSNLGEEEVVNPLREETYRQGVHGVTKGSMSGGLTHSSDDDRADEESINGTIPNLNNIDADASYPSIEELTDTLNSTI

[3] = biological target: T3, Pex32-3xHA (Saccharomyces cerevisiae) (UniProt P38292)
T3 sequence: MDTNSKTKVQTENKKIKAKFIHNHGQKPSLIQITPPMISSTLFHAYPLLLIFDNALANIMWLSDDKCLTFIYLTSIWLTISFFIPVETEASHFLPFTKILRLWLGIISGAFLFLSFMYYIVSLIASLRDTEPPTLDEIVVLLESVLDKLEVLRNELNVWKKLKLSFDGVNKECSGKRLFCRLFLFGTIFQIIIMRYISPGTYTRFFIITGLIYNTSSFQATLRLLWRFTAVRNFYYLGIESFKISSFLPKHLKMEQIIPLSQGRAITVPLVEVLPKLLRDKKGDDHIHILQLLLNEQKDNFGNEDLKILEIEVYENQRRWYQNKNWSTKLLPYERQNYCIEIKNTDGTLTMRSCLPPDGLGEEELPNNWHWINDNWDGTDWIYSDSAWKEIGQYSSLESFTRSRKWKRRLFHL

Binder	binding [1]	binding [2]	binding [3]
Pex30 (protein, UniProt Q06169 1-523) MSGNTTNVHETRAKFAETLQPRIGGNTTKVIRAALEKNEAESGVSEDNDNGSLEKVNVATSPLLTSTPPTISKALVKLYPYLILIDEFLNVVTWTGKNIWSSVLMLCLFITTVEYFETLVKYFGHLAIIAILWGYSLLDNYIEGTLSSSPTLEDIALLMNRVSLKSDILLSPMVNLGTQDIQRLLYTTVILSPIYVMITWLLLPPRSLMLMVGMFLLTYHSPWSKVARRLLWKFKIVRLLVFYVTGLDLGGINKDQGIFATVQKQVKKLASTENSNGVLSDSKPIRFTYVLYENQRRWLGIGWKPSMLSYERTPWTDEFLNEAPSPENFHLPEETNTMVWRWVDKTWRLDMTNDGAIQVPNSKARTSADPSPDEGFIYYDNTWKKPSKEDSFSKYTRRRRWVRTAELVKTSDFDESVINSNRNSAIEQKVEENSTNGLTAEQELGSNKQEKDNAKKVGEPTTEETKEFAEASNINEGEFERISSTDEEVLKSRARDRLAKVLDDTEEKEQSNPTIGRDSKKAV	binds	binds	binds
Pex30^S446A (protein, UniProt Q06169 1-523) MSGNTTNVHETRAKFAETLQPRIGGNTTKVIRAALEKNEAESGVSEDNDNGSLEKVNVATSPLLTSTPPTISKALVKLYPYLILIDEFLNVVTWTGKNIWSSVLMLCLFITTVEYFETLVKYFGHLAIIAILWGYSLLDNYIEGTLSSSPTLEDIALLMNRVSLKSDILLSPMVNLGTQDIQRLLYTTVILSPIYVMITWLLLPPRSLMLMVGMFLLTYHSPWSKVARRLLWKFKIVRLLVFYVTGLDLGGINKDQGIFATVQKQVKKLASTENSNGVLSDSKPIRFTYVLYENQRRWLGIGWKPSMLSYERTPWTDEFLNEAPSPENFHLPEETNTMVWRWVDKTWRLDMTNDGAIQVPNSKARTSADPSPDEGFIYYDNTWKKPSKEDSFSKYTRRRRWVRTAELVKTSDFDESVINSNRNSAIEQKVEENSTNGLTAEQELGANKQEKDNAKKVGEPTTEETKEFAEASNINEGEFERISSTDEEVLKSRARDRLAKVLDDTEEKEQSNPTIGRDSKKAV		binds	
Pex30^S446D (protein, UniProt Q06169 1-523) MSGNTTNVHETRAKFAETLQPRIGGNTTKVIRAALEKNEAESGVSEDNDNGSLEKVNVATSPLLTSTPPTISKALVKLYPYLILIDEFLNVVTWTGKNIWSSVLMLCLFITTVEYFETLVKYFGHLAIIAILWGYSLLDNYIEGTLSSSPTLEDIALLMNRVSLKSDILLSPMVNLGTQDIQRLLYTTVILSPIYVMITWLLLPPRSLMLMVGMFLLTYHSPWSKVARRLLWKFKIVRLLVFYVTGLDLGGINKDQGIFATVQKQVKKLASTENSNGVLSDSKPIRFTYVLYENQRRWLGIGWKPSMLSYERTPWTDEFLNEAPSPENFHLPEETNTMVWRWVDKTWRLDMTNDGAIQVPNSKARTSADPSPDEGFIYYDNTWKKPSKEDSFSKYTRRRRWVRTAELVKTSDFDESVINSNRNSAIEQKVEENSTNGLTAEQELGDNKQEKDNAKKVGEPTTEETKEFAEASNINEGEFERISSTDEEVLKSRARDRLAKVLDDTEEKEQSNPTIGRDSKKAV		binds	
